Experimental findings from publication PMC9966875 are described below.

Amino acid sequences for entries named in this document (tags omitted).
UniProt P52926: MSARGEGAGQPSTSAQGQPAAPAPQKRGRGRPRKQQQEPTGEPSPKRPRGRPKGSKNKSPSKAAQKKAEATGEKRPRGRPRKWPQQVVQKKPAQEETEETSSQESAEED
UniProt Q14980: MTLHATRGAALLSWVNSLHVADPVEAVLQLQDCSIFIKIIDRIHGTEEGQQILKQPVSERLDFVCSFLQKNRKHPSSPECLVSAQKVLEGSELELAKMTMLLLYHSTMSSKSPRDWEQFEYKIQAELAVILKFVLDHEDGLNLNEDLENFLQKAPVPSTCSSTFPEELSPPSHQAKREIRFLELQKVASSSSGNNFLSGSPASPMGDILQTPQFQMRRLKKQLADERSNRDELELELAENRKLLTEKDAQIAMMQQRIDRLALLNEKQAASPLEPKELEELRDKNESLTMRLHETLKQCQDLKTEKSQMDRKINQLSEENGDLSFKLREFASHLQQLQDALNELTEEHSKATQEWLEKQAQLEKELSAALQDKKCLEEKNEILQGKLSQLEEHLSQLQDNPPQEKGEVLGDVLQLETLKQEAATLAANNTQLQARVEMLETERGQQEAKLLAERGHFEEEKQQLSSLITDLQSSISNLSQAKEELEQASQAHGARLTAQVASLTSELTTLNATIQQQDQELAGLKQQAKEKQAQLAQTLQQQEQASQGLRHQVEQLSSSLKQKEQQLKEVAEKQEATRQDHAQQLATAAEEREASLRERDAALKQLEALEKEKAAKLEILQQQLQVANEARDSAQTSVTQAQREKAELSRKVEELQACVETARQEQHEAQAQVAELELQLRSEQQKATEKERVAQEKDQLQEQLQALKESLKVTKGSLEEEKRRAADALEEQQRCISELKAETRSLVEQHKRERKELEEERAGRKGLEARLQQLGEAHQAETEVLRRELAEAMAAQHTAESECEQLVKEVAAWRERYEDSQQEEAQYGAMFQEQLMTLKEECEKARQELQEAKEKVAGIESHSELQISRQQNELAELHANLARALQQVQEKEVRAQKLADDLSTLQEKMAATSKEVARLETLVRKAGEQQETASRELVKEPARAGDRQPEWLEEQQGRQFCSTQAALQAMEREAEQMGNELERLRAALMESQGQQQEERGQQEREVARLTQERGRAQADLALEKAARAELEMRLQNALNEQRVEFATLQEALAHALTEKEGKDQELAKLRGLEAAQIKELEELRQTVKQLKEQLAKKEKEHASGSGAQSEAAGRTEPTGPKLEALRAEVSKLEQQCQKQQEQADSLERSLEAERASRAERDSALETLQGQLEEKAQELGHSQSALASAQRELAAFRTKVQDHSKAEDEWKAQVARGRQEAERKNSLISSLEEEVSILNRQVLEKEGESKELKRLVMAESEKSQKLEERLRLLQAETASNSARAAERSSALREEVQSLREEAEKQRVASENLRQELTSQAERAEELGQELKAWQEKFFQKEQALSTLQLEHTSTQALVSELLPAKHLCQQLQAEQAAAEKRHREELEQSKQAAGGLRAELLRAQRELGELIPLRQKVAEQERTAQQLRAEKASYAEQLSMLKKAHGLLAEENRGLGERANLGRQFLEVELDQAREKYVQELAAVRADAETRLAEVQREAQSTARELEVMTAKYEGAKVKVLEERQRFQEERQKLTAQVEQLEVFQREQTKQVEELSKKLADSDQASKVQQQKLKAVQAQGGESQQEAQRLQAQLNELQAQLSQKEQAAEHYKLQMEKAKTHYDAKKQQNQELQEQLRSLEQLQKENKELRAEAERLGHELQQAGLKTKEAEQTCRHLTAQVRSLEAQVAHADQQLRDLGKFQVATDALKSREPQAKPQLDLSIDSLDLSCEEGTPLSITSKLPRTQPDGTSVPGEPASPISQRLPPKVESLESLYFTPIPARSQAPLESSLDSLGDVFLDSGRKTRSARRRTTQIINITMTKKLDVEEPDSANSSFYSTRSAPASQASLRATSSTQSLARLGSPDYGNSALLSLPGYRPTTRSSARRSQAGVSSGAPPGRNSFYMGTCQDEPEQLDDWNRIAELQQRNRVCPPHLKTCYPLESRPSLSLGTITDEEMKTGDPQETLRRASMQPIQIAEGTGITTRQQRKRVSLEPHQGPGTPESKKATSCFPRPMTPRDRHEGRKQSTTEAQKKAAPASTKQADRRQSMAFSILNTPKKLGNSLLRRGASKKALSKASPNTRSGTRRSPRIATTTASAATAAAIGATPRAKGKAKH

Sequences and labels used below:
B1: POGZ (protein, UniProt Q7Z3K3 1-1410)
chain: MADTDLFMECEEEELEPWQKISDVIEDSVVEDYNSVDKTTTVSVSQQPVSAPVPIAAHASVAGHLSTSTTVSSSGAQNSDSTKKTLVTLIANNNAGNPLVQQGGQPLILTQNPAPGLGTMVTQPVLRPVQVMQNANHVTSSPVASQPIFITTQGFPVRNVRPVQNAMNQVGIVLNVQQGQTVRPITLVPAPGTQFVKPTVGVPQVFSQMTPVRPGSTMPVRPTTNTFTTVIPATLTIRSTVPQSQSQQTKSTPSTSTTPTATQPTSLGQLAVQSPGQSNQTTNPKLAPSFPSPPAVSIASFVTVKRPGVTGENSNEVAKLVNTLNTIPSLGQSPGPVVVSNNSSAHGSQRTSGPESSMKVTSSIPVFDLQDGGRKICPRCNAQFRVTEALRGHMCYCCPEMVEYQKKGKSLDSEPSVPSAAKPPSPEKTAPVASTPSSTPIPALSPPTKVPEPNENVGDAVQTKLIMLVDDFYYGRDGGKVAQLTNFPKVATSFRCPHCTKRLKNNIRFMNHMKHHVELDQQNGEVDGHTICQHCYRQFSTPFQLQCHLENVHSPYESTTKCKICEWAFESEPLFLQHMKDTHKPGEMPYVCQVCQYRSSLYSEVDVHFRMIHEDTRHLLCPYCLKVFKNGNAFQQHYMRHQKRNVYHCNKCRLQFLFAKDKIEHKLQHHKTFRKPKQLEGLKPGTKVTIRASRGQPRTVPVSSNDTPPSALQEAAPLTSSMDPLPVFLYPPVQRSIQKRAVRKMSVMGRQTCLECSFEIPDFPNHFPTYVHCSLCRYSTCCSRAYANHMINNHVPRKSPKYLALFKNSVSGIKLACTSCTFVTSVGDAMAKHLVFNPSHRSSSILPRGLTWIAHSRHGQTRDRVHDRNVKNMYPPPSFPTNKAATVKSAGATPAEPEELLTPLAPALPSPASTATPPPTPTHPQALALPPLATEGAECLNVDDQDEGSPVTQEPELASGGGGSGGVGKKEQLSVKKLRVVLFALCCNTEQAAEHFRNPQRRIRRWLRRFQASQGENLEGKYLSFEAEEKLAEWVLTQREQQLPVNEETLFQKATKIGRSLEGGFKISYEWAVRFMLRHHLTPHARRAVAHTLPKDVAENAGLFIDFVQRQIHNQDLPLSMIVAIDEISLFLDTEVLSSDDRKENALQTVGTGEPWCDVVLAILADGTVLPTLVFYRGQMDQPANMPDSILLEAKESGYSDDEIMELWSTRVWQKHTACQRSKGMLVMDCHRTHLSEEVLAMLSASSTLPAVVPAGCSSKIQPLDVCIKRTVKNFLHKKWKEQAREMADTACDSDVLLQLVLVWLGEVLGVIGDCPELVQRSFLVASVLPGPDGNINSPTRNADMQEELIASLEEQLKLSGEHSESSTPRPRSSPEETIEPESLHQLFEGESETESFYGFEEADLDLMEI
B2: HMGB2 (protein, UniProt P26583 1-209)
chain: MGKGDPNKPRGKMSSYAFFVQTCREEHKKKHPDSSVNFAEFSKKCSERWKTMSAKEKSKFEDMAKSDKARYDREMKNYVPPKGDKKGKKKDPNAPKRPPSAFFLFCSEHRPKIKSEHPGLSIGDTAKKLGEMWSEQSAKDKQPYEQKAAKLKEKYEKDIAAYRAKGKSEAGKKGPGRPTGSKKKNEPEDEEEEEEEEDEDEEEEDEDEE
B3: ZNF512B (protein, UniProt Q96KM6 1-892)
chain: MTDPFCVGGRRLPGSSKSGPGKDGSRKEVRLPMLHDPPKMGMPVVRGGQTVPGQAPLCFDPGSPASDKTEGKKKGRPKAENQALRDIPLSLMNDWKDEFKAHSRVKCPNSGCWLEFPSIYGLKYHYQRCQGGAISDRLAFPCPFCEAAFTSKTQLEKHRIWNHMDRPLPASKPGPISRPVTISRPVGVSKPIGVSKPVTIGKPVGVSKPIGISKPVSVGRPMPVTKAIPVTRPVPVTKPVTVSRPMPVTKAMPVTKPITVTKSVPVTKPVPVTKPITVTKLVTVTKPVPVTKPVTVSRPIVVSKPVTVSRPIAISRHTPPCKMVLLTRSENKAPRATGRNSGKKRAADSLDTCPIPPKQARPENGEYGPSSMGQSSAFQLSADTSSGSLSPGSRPSGGMEALKAAGPASPPEEDPERTKHRRKQKTPKKFTGEQPSISGTFGLKGLVKAEDKARVHRSKKQEGPGPEDARKKVPAAPITVSKEAPAPVAHPAPGGPEEQWQRAIHERGEAVCPTCNVVTRKTLVGLKKHMEVCQKLQDALKCQHCRKQFKSKAGLNYHTMAEHSAKPSDAEASEGGEQEERERLRKVLKQMGRLRCPQEGCGAAFSSLMGYQYHQRRCGKPPCEVDSPSFPCTHCGKTYRSKAGHDYHVRSEHTAPPPEEPTDKSPEAEDPLGVERTPSGRVRRTSAQVAVFHLQEIAEDELARDWTKRRMKDDLVPETARLNYTRPGLPTLNPQLLEAWKNEVKEKGHVNCPNDCCEAIYSSVSGLKAHLASCSKGAHLAGKYRCLLCPKEFSSESGVKYHILKTHAENWFRTSADPPPKHRSQDSLVPKKEKKKNLAGGKKRGRKPKERTPEEPVAKLPPRRDDWPPGCRDKGARGSTGRKVGVSKAPEK
B4: ILKAP (protein, UniProt Q9H0C8 1-392)
chain: MDLFGDLPEPERSPRPAAGKEAQKGPLLFDDLPPASSTDSGSGGPLLFDDLPPASSGDSGSLATSISQMVKTEGKGAKRKTSEEEKNGSEELVEKKVCKASSVIFGLKGYVAERKGEREEMQDAHVILNDITEECRPPSSLITRVSYFAVFDGHGGIRASKFAAQNLHQNLIRKFPKGDVISVEKTVKRCLLDTFKHTDEEFLKQASSQKPAWKDGSTATCVLAVDNILYIANLGDSRAILCRYNEESQKHAALSLSKEHNPTQYEERMRIQKAGGNVRDGRVLGVLEVSRSIGDGQYKRCGVTSVPDIRRCQLTPNDRFILLACDGLFKVFTPEEAVNFILSCLEDEKIQTREGKSAADARYEAACNRLANKAVQRGSADNVTVMVVRIGH

These are yes or no findings as the source states them, for the method shown. In cells and extracts the contact can be indirect. These calls come from enrichment with a bait or labelling near it, and not all partners need be listed. For some of these results: A no says only that the protein was not detected with the bait.

One experiment concerns the target HMGA2-Flag-BioID2 (UniProt P52926). In words: proximity labelling; BioID2: HEK293 stably expressing HMGA2-Flag-BioID2, SILAC, 50 uM biotin for 18 h; high-salt RIPA lysis, capture on streptavidin-agarose, LC-MS/MS; two experiments, controls BirA* and parental cells (experiment 1), BioID2 alone (experiment 2).
On to TP53 (from UniProt P04637 1-393), for which the binding result is given as “no binding”.

In the case of “nuclear mitotic apparatus protein, NUMA (from UniProt Q14980 1-2115)”, the binding entry is “binds”.

Turning to B1, the binding entry is reported as “binds”.

In the case of B2, the binding entry was “binds”.

In the case of B3, the binding result is “binds”.

Turning to B4, the binding entry was “binds”.

For another experiment the target is unchanged. In words: proximity labelling; BioID/Western blot: HEK293 HMGA2-BioID2 against BioID2 alone, excess biotin for 18 h; biotinylated proteins captured on streptavidin-agarose and detected with specific antibodies. (In western blotting, separated proteins are transferred to a membrane and probed.)
Take TP53 (from UniProt P04637 1-393): the binding result was “no binding”.

On to “nuclear mitotic apparatus protein, NUMA (from UniProt Q14980 1-2115)”, for which the binding result is given as “binds”.

For another experiment, the target named is HMGA2-V5-miniTurbo (UniProt P52926). In words: proximity labelling; miniTurbo: HEK293 stably expressing HMGA2-V5-miniTurbo, SILAC, 1 hr labeling time with biotin; streptavidin capture, LC-MS/MS; control miniTurbo alone.
As to “nuclear mitotic apparatus protein, NUMA (from UniProt Q14980 1-2115)”, the binding result is reported as “binds”.

For B1, the binding entry is listed as “binds”.

Take B2: the binding result is given as “binds”.

For the molecule B3, the binding entry was “binds”.

On to B4, for which the binding entry is given as “binds”.
